Measurements reported in PubChem BioAssay AID504764 (Drosophila RNAi Screening Center, 2011)

Test: 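Genome-wide screen for regulators of Notch-driven gene expression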 (primary screen)
Cells: Drosophila Kc167 cells
Reagent: long dsRNA against Drosophila genes
Time to read-out: about 5 days (4 days dsRNA, then 24 h after transfection)
Challenge: transfection of constitutively active membrane-tethered Notch lacking the extracellular domain, read 24 h later
Detection: 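Light from a Notch-responsive E(spl)m3 luciferase reporter under active Notch, with control-promoter and no-Notch reporter wells to normalise; raw counts from paired wells a and b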
Reading the numbers: induced reporter light, run 1, well a and induced reporter light, run 1, well b: higher = more light from the Notch target reporter with active Notch; control promoter light, run 1, well a and control promoter light, run 1, well b: higher = more light from the viral control promoter (cell number, transfection, viability); uninduced reporter light, run 1, well a: higher = more light from the Notch target reporter without active Notch
Rule for the call: 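Hit if the duplicate-averaged log2 ratio of induced to control-promoter light gives a plate-wise z beyond ±2, or induced to uninduced beyond ±1.8; weak-control or discordant-duplicate wells dropped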
Calls: active = modifier hit (raised or lowered Notch signal); inactive = not a hit
In all, the deposit lists about 22,000 reagents; this is an unselected part of those with a known target gene and a result. Over the whole deposit, 403 (1.9%) are marked active. 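Unnormalised raw counts per well; ratio z-scores behind the hit calls and whether each hit raises or lowers signal are not deposited.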 The numbers tell different reagents against one gene apart. A plus sign joins genes that one reagent is predicted to hit. Not given: the amount of reagent.

target gene | dsRNA no. | induced reporter light, run 1, well a | induced reporter light, run 1, well b | control promoter light, run 1, well a | control promoter light, run 1, well b | uninduced reporter light, run 1, well a | Call
Gprk2 (G protein-coupled receptor kinase 2) | 1 | 90035 | 94980 | 1.07e5 | 1.13e5 | 7900 | inactive
MED16 (Mediator complex subunit 16) | 1 | 10678 | 8280 | 15030 | 15705 | 645 | inactive
CG42390 | 1 | 12580 | 11700 | 11405 | 12865 | 3520 | inactive
BCL7-like | 1 | 1.93e5 | 1.75e5 | 2.49e5 | 2.17e5 | 13195 | inactive
Pepck2 (Phosphoenolpyruvate carboxykinase 2) | 1 | 37795 | 33250 | 62465 | 63045 | 3940 | inactive
Tango10 (Transport and Golgi organization 10) | 1 | 1.83e5 | 2.26e5 | 3.38e5 | 2.46e5 | 13040 | inactive
CG7694 | 1 | 1.81e5 | 2.00e5 | 1.86e5 | 1.71e5 | 12165 | inactive
fd59A (forkhead domain 59A) | 1 | 2.10e5 | 2.47e5 | 2.06e5 | 2.02e5 | 16320 | inactive
Mrgn1 (Mahogunin ring finger 1) | 1 | 2.05e5 | 1.90e5 | 2.81e5 | 2.59e5 | 15200 | inactive
Txl (Thioredoxin-like) | 1 | 1.82e5 | 1.52e5 | 2.40e5 | 2.10e5 | 7760 | inactive
CycH (Cyclin H) | 1 | 1.21e5 | 1.26e5 | 1.19e5 | 1.13e5 | 7755 | inactive
Oseg2 (Outer segment 2) | 1 | 1.02e5 | 93310 | 1.82e5 | 1.46e5 | 7160 | inactive
RpL35A (Ribosomal protein L35A) | 1 | 31185 | 33560 | 31730 | 28140 | 2020 | inactive
Pfas (Phosphoribosylformylglycinamidine synthase) | 1 | 82405 | 68495 | 76455 | 75580 | 5240 | inactive
CG13589 | 1 | 1.89e5 | 1.97e5 | 1.87e5 | 2.06e5 | 14100 | inactive
CG14089 | 1 | 1.34e5 | 1.05e5 | 1.26e5 | 1.11e5 | 9690 | inactive
tplus3a + tplus3b | 1 | 69010 | 69600 | 68905 | 86990 | 6320 | inactive
betaNACtes1 (Nascent-associated complex beta-subunit-like, testis 1) | 1 | 60505 | 65820 | 74650 | 63225 | 9260 | inactive
Rox8 | 1 | 84850 | 85420 | 70495 | 81085 | 6890 | inactive
CG2641 | 1 | 55005 | 60135 | 57135 | 46285 | 4305 | inactive
tbrd-1 | 1 | 1.94e5 | 1.70e5 | 2.36e5 | 1.89e5 | 14395 | inactive
CG1801 | 1 | 1.55e5 | 1.28e5 | 1.60e5 | 1.55e5 | 15855 | inactive
AOX2 (Aldehyde oxidase 2) | 1 | 3.24e5 | 2.69e5 | 2.67e5 | 3.82e5 | 23250 | inactive
Gr64c (Gustatory receptor 64c) | 1 | 68505 | 81885 | 1.44e5 | 1.17e5 | 5605 | inactive
lncRNA:bxd (bithoraxoid) | 1 | 96565 | 1.22e5 | 1.27e5 | 1.54e5 | 7125 | inactive
CR14499 (retired record) | 1 | 1.39e5 | 99325 | 86135 | 81775 | 8360 | inactive
alpha-Est8 (alpha-Esterase-8) | 1 | 72200 | 81930 | 80420 | 54635 | 5340 | inactive
hec (hector) | 1 | 1.07e5 | 1.08e5 | 1.34e5 | 1.88e5 | 8805 | inactive
RnrS (Ribonucleoside diphosphate reductase small subunit) | 1 | 55555 | 49450 | 43905 | 46810 | 7050 | active
fat-spondin | 1 | 91155 | 93700 | 1.61e5 | 2.05e5 | 8260 | inactive
CG31897 | 1 | 1.30e5 | 2.00e5 | 2.01e5 | 1.70e5 | 9950 | inactive
LManI (Lysosomal alpha-mannosidase I) | 1 | 1.20e5 | 1.17e5 | 69240 | 90420 | 13542 | inactive
CG34265 | 1 | 2.38e5 | 2.28e5 | 2.55e5 | 2.75e5 | 16250 | inactive
CG42527 (retired record) + Hr4 | 1 | 1.23e5 | 1.02e5 | 1.56e5 | 1.74e5 | 7190 | inactive
CG42527 (retired record) + Hr4 | 2 | – | – | – | – | – | inactive
CG42527 (retired record) + Hr4 | 3 | – | – | – | – | – | inactive
Cals (Calsyntenin) | 1 | 1.71e5 | 1.95e5 | 2.50e5 | 2.61e5 | 14600 | inactive
CG13231 | 1 | 85755 | 1.23e5 | 1.50e5 | 1.54e5 | 11700 | inactive
CG18324 | 1 | 1.87e5 | 1.39e5 | 1.88e5 | 1.59e5 | 12510 | inactive
Ugt317A1 (UDP-glycosyltransferase family 317 member A1) | 1 | 1.77e5 | 1.41e5 | 1.66e5 | 1.56e5 | 11965 | inactive
Rae1 | 1 | 1.78e5 | 1.93e5 | 1.42e5 | 1.47e5 | 13950 | inactive
Pbgs (Porphobilinogen synthase) | 1 | 57440 | 48675 | 81175 | 61835 | 3720 | inactive
mrj | 1 | – | – | – | – | – | inactive
betaNACtes2 (Nascent-associated complex beta-subunit-like, testis 2) | 1 | 88780 | 65400 | 67635 | 55555 | 10650 | inactive
TAF1B | 1 | 1.23e5 | 1.31e5 | 89495 | 96370 | 9930 | inactive
CG8006 | 1 | 96640 | 1.06e5 | 82110 | 23045 | 10370 | inactive
s-cup (stanley-cup) | 1 | 80270 | 83475 | 1.04e5 | 1.06e5 | 8095 | inactive
s-cup (stanley-cup) | 2 | 78785 | 72675 | 1.22e5 | 1.17e5 | 8395 | inactive
Pmm2 (Phosphomannomutase type 2) | 1 | 1.64e5 | 1.24e5 | 2.33e5 | 1.50e5 | 7130 | inactive
m (miniature) | 1 | 98255 | 85685 | 1.16e5 | 1.04e5 | 6765 | inactive

Records listed so far whose gene name begins with M or m (4):
target gene | dsRNA no. | induced reporter light, run 1, well a | induced reporter light, run 1, well b | control promoter light, run 1, well a | control promoter light, run 1, well b | uninduced reporter light, run 1, well a | Call
MED16 (Mediator complex subunit 16) | 1 | 10678 | 8280 | 15030 | 15705 | 645 | inactive
Mrgn1 (Mahogunin ring finger 1) | 1 | 2.05e5 | 1.90e5 | 2.81e5 | 2.59e5 | 15200 | inactive
mrj | 1 | – | – | – | – | – | inactive
m (miniature) | 1 | 98255 | 85685 | 1.16e5 | 1.04e5 | 6765 | inactive
